Assay results published in paper PMC12017883.
Results are given in words; binding and its absence hold for the method and conditions named. In cells and extracts the contact can be indirect. Here binding means that the protein was enriched with, or labelled near, the bait; the list need not be complete.

By UniProt entry, the sequences of proteins in these tests, tags left out. Where a name states a change or a piece, a line headed by the entry shows the natural chain unless it says otherwise.
UniProt P00441: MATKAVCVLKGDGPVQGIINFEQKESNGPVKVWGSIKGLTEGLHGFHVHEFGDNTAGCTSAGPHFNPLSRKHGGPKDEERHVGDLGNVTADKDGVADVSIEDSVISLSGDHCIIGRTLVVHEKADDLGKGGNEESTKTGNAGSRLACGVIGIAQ

B1: Periostin (protein, UniProt Q62009 24-838)
chain: NSYYDKVLAHSRIRGRDQGPNVCALQQILGTKKKYFSSCKNWYQGAICGKKTTVLYECCPGYMRMEGMKGCPAVMPIDHVYGTLGIVGATTTQHYSDVSKLREEIEGKGSYTYFAPSNEAWENLDSDIRRGLENNVNVELLNALHSHMVNKRMLTKDLKHGMVIPSMYNNLGLFINHYPNGVVTVNCARVIHGNQIATNGVVHVIDRVLTQIGTSIQDFLEAEDDLSSFRAAAITSDLLESLGRDGHFTLFAPTNEAFEKLPRGVLERIMGDKVASEALMKYHILNTLQCSEAITGGAVFETMEGNTIEIGCEGDSISINGIKMVNKKDIVTKNGVIHLIDEVLIPDSAKQVIELAGKQQTTFTDLVAQLGLASSLKPDGEYTLLAPVNNAFSDDTLSMDQRLLKLILQNHILKVKVGLSDLYNGQILETIGGKQLRVFVYRTAICIENSCMVRGSKQGRNGAIHIFREIIQPAEKSLHDKLRQDKRFSIFLSLLEAADLKDLLTQPGDWTLFAPTNDAFKGMTSEERELLIGDKNALQNIILYHLTPGVYIGKGFEPGVTNILKTTQGSKIYLKGVNETLLVNELKSKESDIMTTNGVIHVVDKLLYPADIPVGNDQLLELLNKLIKYIQIKFVRGSTFKEIPMTVYTTKIITKVVEPKIKVIQGSLQPIIKTEGPAMTKIQIEGDPDFRLIKEGETVTEVIHGEPVIKKYTKIIDGVPVEITEKQTREERIITGPEIKYTRISTGGGETGETLQKFLQKEVSKVTKFIEGGDGHLFEDEEIKRLLQGDTPAKKIPANKRVQGPRRRSREGRSQ
B2: Myeloid leukemia factor 2 (protein, UniProt Q99KX1 1-247)
chain: MFRFMRDVEPEDPMFLMDPFAIHRQHMSRMLSGGFGYSPFLSITDGNMPATRPASRRMQAGAVSPFGMLGMSGGFMDMFGMMNDMIGNMEHMAAGGNCQTFSSSTVISYSNTGDGAPKVYQETSEMRSAPGGIRETRRTVRDSDSGLEQMSIGHHIRDRAHILQRSRNHRTGDQEERQDYINLDESEAAAFDDEWRRETSRYRQQRPLEFRRHEASVGGGRRAEGPPRLAIQGPEDSPSRQSRRYDW
B3: Ras association (RalGDS/AF-6) and pleckstrin homology domains 1 (protein, UniProt F2Z3U3 1-1266)
chain: MEQLSDEEIDHGAEEDSDKEDQDLDKMFGAWLGELDRLTQSLDSDKPKEPVKRSPLRQETNMANFSYRFSIYNLNEALNQGETVDLDALMADLCSIEQELSSIGSGNSKRQVTEPKVPQKLPAGRHTSKHGTLRGPSSSSNRTTKPSHANYSLDDITAQLEQASLSMDEAAQQSLVEDPKPLVTNQHRRTASAGTVSDAEARSISNSSRSSITSAASSMDSLDIDKVTRPQELDLTTHQGQPITEEEQAAKLKAEKIRVALEKIKEAQVKKLVIRVHMSDDSSKTMMVDERQTVRQVLDNLMDKSHCGYSLDWSLVETISELQMERIFEDHENLVENLLNWTRDSQNKLIFMERIEKYALFKNPQNYLLGKKETAEMADRNKEVLLEECFCGSSVTVPEIEGVLWLKDDGKKSWKKRYFLLRASGIYYVPKGKAKVSRDLVCFLQLDHVNVYYGQDYRNKYKAPTDCCLALKHPQIQKKSQYIKYLCCDDARTLHQWVNGIRIAKYGKQLYTNYQEALKRTESAYDWTSLSSSSIKSGSSSSSIPESQSNHSNQSDSGVSDTLPTGHIRSQSTVSSIFSEAWKRGTQLEESSKARMESMNRSYTSLMPPLSPQTKIITPYTASQPSPPLPPPPPPPPPPPPPPPPPPPPLPSQSAPSSGSAATMFVKYSTITRLQNAAQHSGTLFKSPTPPAMQPLPLASQSKAQIVVPPNGVIPPPPPPPPPPTPGSAMAQLKPVPCAPSLPQFSPQPPPLKIHQVQHLPQTAPPTPPPAPPITATVPPQAPPKPLVTIPPSASTKTVSPVVAQAVPPTPAPPVPPAKKQPVFPVSHIPPTPPVQPTPHPPPTLPKQQSFGVKPPPSPLSPVPSVVKQIASQFPPPPTPPPVDSQPLKSLPASGTPQSPPAVKAKPKWQPSSIPVPSPDFPPPPPESSLVFPPPPPPAPAPAPPPPPPPPPPPPPVPPTASPTPDKGGSPGKKTSKMSSPGGKKPPPTPQRNSSIKSGSCAEHPEPKRPSVDSLVSKFAPPAESGSPSKETPPPPAAPPKPGKLHLSGVNLPGIHQQGIVSAKASVLSGRGKDVVVEFPSPPSDSDFPPPPPEIELPLPPIEIPAVFSGNTSPKVAVVNPQPQLWSKTSVKKAPPPTRPKRNDSTRLTQADISEQPAMTTVVPQVPTSPKSSLSVQPGFLADLNRTLQRKSITRHGSLSSSRMSRAEPTATMDDMALPPPPPELLSDQQKAGFGGSHISGYATLRRGPPPAPPKRDQNTKLSRDW
B4: Leucine zipper protein 1 (protein, UniProt Q8R4U7 1-1068)
chain: MAELTNYKDAASNRHLRFKLQSLSRRLDELEEATKNLQRAEDELLDLQDKVIQAEGSDSSTLAEIEVLRQRVLKIEGKDEEIKRAEDLCHTMKEKLEEEENLTRELKSEIERLQKRMVDLEKLEEALSRSKNECSQLCLSLNEERNLTKKISSELEMLRVKVKELESSEDRLDKTEQSLVSELEKLKSLTLSFVNERKYLNEKEKENEKIIKELTQKLEQNKKMNRDHMRNASTFLERNDLRIEDGISSTLSSKESKRKGSLDYLKQVENETRDKSENEKNRNQEDNKVKDLNQEIEKLKTQIKHFESLEEELKKMRAKNNDLQDNYLTELNRNRSLASQLEEIKLQVRKQKELGNGDIEGEDAFLLGRGRHERTKLKGHGSEASVSKHTSRELSPQHKRERLRNREFALSNEHYSLSSKQASSPVFTNKRAAKASNMGMGTDSGTQETKRTEDRFAPGSSHSEGKRGREQPSVLSRYPPAAQEHTKVWKGAPKPGTESGLKGKVEKTTRTFSDSTHVSVPNDIVGKGDKTSDLSSEAHCGKRGQVPGHASQGTQAVESSCSKAIGALSSSQKASSEGLSKGKKTANGLAADANFSNSKAPILSKYPYSSRSQENILQGFSLPNKEGVDQPVAVVMEDSSQHEALRCRVIKSSGREKPDSDDDLDIESFVTAKLVNTTITPEPEPKPQPNSREKVKSRGGTRTALFENDKNAAIENDSVKPTRPSSNAIEFPDANCAGVKNQRPFSPREALRSRAIIKPVIIDKDVKKIMGGSGTEVVLEKQKSTSKSVTSKVTSSITIYPSDSSGPRAVPSEAPRERHTSTSNIQVGPPELTAISNHVSSPLELSIHKHDITLQLTEAERVGDGSPKNRAEMVVSRSSILIKPSESVEKNSHVPPAETIRWKSHSASSDSRHITVRNAWKSKRDLKCSEDPPTGIGRNMEATNAYTQRPCTDFLELEQPRSQPSEQGARRVGNSGDAPELSPRRTQSSLTASEVLTRRDRMGGAITAASCNHSSSMEEGEDSTFVTSRRIHNPLEHSELPGKQGLPEPEPVWTEERLHPAKPYAEED
B5: Ataxin-2-like protein (protein, UniProt Q7TQH0 1-1049)
chain: MLKPQPPQQTSQPQQPPPTQQAVARRSPGGTSPPNGGLPGPLTATAAPPGPPAAVSPCLGPAAAAGSGLRRGAESILAASAPPQHQERPGAVAIGSVRGQTTGKGPPQSPVFEGVYNNSRMLHFLTAVVGSTCDVKVKNGTTYEGIFKTLSSKFELAVDAVHRKASEPAGGPRREDIVDTMVFKPSDVLLVHFRNVDFNYATKDKFTDSAIAMNSKVNGEHKEKVLQRWEGGDSNSDDYDLESDMSNGWDPNEMFKFNEENYGVKTTYDSSLSSYTVPLEKDNSEEFRQRELRAAQLAREIESSPQYRLRIAMENDDGRTEEEKHSAVQRQGSGRESPSLVSREGKYIPLPQRVREGPRGGVRCSSSRGGRPGLSSLPPRGPHHLDNSSPGPGSEARGINGGPSRMSPKAQRPLRGAKTLSSPSNRPSGEASVPPTSAALPFLPVGRMYPPRSPKSAAPAPVSASCPEPPIGSAVASSASIPVTSSVVDPGAGSISPASPKLSLTPTDVKELPTKEPSRNLEAQELARIAGKVPGLQNEQKRFQLEELRKFGAQFKLQPSSSPETGLDPFPSRILKEEAKGKEKEVDGLLTSDPMGSPVSSKTESILDKEDKVPMAGVGGTEGPEQLPAPCPSQTGSPPVGLIKGDEKEEGPVTEQVKKSTLNPNAKEFNPTKPLLSVNKSTSTPTSPGPRTHSTPSIPVLTAGQSGLYSPQYISYIPQIHMGPAVQAPQMYPYPVSNSVPGQQGKYRGAKGSLPPQRSDQHQPASAPPMMQAAAAAAGPPLVAATPYSSYIPYNPQQFPGQPAMMQPMAHYPSQPVFAPMLQSNPRMLTSGSHPQAIVSSSTPQYPAAEQPTPQALYATVHQSYPHHATQLHGHQPQPATTPTGSQPQSQHAAPSPVQHQAGQAPHLGSGQPQQNLYHPGALTGTPPSLPPGPSAQSPQSSFPQPAAVYAIHPHQQLPHGFTNMAHVTQAHVQTGVTAAPPPHPGAPHPPQVMLLHPPQGHGGPPQGAVPPSGVPALSASTPSPYPYIGHPQVQSHPSQQLPFHPPGN
B6: Clathrin light chain B (protein, UniProt Q6IRU5 1-229)
chain: MAEDFGFFSSSESGAPEAAEEDPAAAFLAQQESEIAGIENDPGFGAPAASQVASAQPGLASGAGSEDMSTTVNGDVFQEANGPADGYAAIAQADRLTQEPESIRKWREEQKKRLQELDAASKVTEQEWREKAKKDLEEWNQRQSEQVEKNKINNRIADKAFYQQPDADTIGYVASEEAFVKESKEETPGTEWEKVAQLCDFNPKSSKQCKDVSRLRSVLMSLKQTPLSR
B7: Cytochrome b5 type B (protein, UniProt Q9CQX2 12-146)
chain: KVEGSEPSVTYYRLEEVAKRNSAEETWMVIHGRVYDITRFLSEHPGGEEVLLEQAGADATESFEDVGHSPDAREMLKQYYIGDVHPSDLKPKGDDKDPSKNNSCQSSWAYWFVPIVGAILIGFLYRHFWADSKSS
B8: Calcium-binding mitochondrial carrier protein Aralar2 (protein, UniProt Q9QXX4 1-676)
chain: MAAAKVALTKRADPAELKAIFLKYASIEKNGEFFMSPHDFVTRYLNIFGESQPNPKTVELLSGVVDQTKDGLISFQEFVAFESVLCAPDALFMVAFQLFDKAGKGEVTFEDVKQIFGQTTIHQHIPFNWDSEFVQLHFGKERKRHLTYAEFTQFLLEIQLEHAKQAFVQRDNAKTGKVSAIDFRDIMVTIRPHVLTPFVEECLVAAAGGTRSHQVSFSYFNGFNSLLNNMELIRKIYSTLAGNRKDVEVTKEEFALAAQKFGQVTPMEVDILFQLADLYEPRGRMTLADIERIAPLEEGMLPFNLAEAQRQQKASGDAARPFLLQLAESAYRFGLGSIAGAVGATAVYPIDLVKTRMQNQRSTGSFVGELMYKNSFDCFKKVLRYEGFFGLYRGLLPQLLGVAPEKAIKLTVNDFVRDKFMHKDGSVPLLAEIFAGGCAGGSQVIFTNPLEIVKIRLQVAGEITTGPRVSALSVVRDLGFFGIYKGAKACFLRDIPFSAIYFPCYAHVKASFANEDGQVSPGSLLLAGAIAGMPAASLVTPADVIKTRLQVAARAGQTTYNGVTDCFRKILREEGPKALWKGVAARVFRSSPQFGVTLLTYELLQRWFYVDFGGVKPVGSEPVPKSRITLPAPNPDHVGGYKLAVATFAGIENKFGLYLPLFKPSASTSKVTAGDS

Target: human mtSOD1-L126delTT with a FLAG sequence at the C terminus (human) (UniProt P00441)
Experiment: affinity purification with mass spectrometry; anti-FLAG M2 IP (5 ug antibody, protein A/G magnetic beads) from the nuclear fraction of DF7 cells (500 ug total protein); control IP with monoclonal mouse IgG (MOPC 21); DIA proteomics; hits: log2 FC >= 2 over control or missing in the control IP

Row | Binder | binding
1 | B1 | binds
2 | B2 | binds
3 | B3 | binds
4 | B4 | binds
5 | B5 | binds
6 | B6 | binds
7 | B7 | binds
8 | B8 | binds
